Assay [1] deals with C9 (human (endogenous in normal human serum)) (UniProt P02748). The assay can be described thus: non-reducing SDS-PAGE and Western blot of C9 polymers in cell lysates; A549 cells incubated with purified C5b6 (5 µg, 2 h, 37°C), then 5% NHS as source of C7 to C9, pre-incubated without or with 12.5 to 50 µg ZIKV E; lysates on 8% gel under non-reducing conditions; anti-C9 neo-epitope WU 13-15.

For assay [2] the target is unchanged. The assay can be described thus: non-reducing SDS-PAGE and Western blot of C9 polymers in cell lysates; A549 cells incubated with sublytic anti-human HLA-ABC (1:1,000) as activator of the classical pathway, then 5% NHS pre-incubated with different amounts of ZIKV E; lysates on non-reducing gel; anti-C9 neo-epitope WU 13-15. For orientation: Immunoblotting shows a protein as a band on a membrane.

This note sets out measurements from publication PMC7655927.

No constants are given. Whether binding was seen depends on the method and setting. Some entries that bind do so weakly or less than the wild type.

As for C9 (from UniProt P02748 22-559), the binding result in assay [1] and in assay [2] was “binds” throughout.
